Assay results from PubChem BioAssay AID248 (DTP/NCI, 2004).
The list shows only some results of the screen, not a fair sample: it is rich in T/C values a quarter to a half above the control, in often repeated tests (any T/C) and in doses without a T/C. Other doses and runs of a compound stand elsewhere. T/C: endpoint of the treated group in % of that of the vehicle group. Some entries give survivors of the animals treated and no T/C: the source holds a T/C of zero for them, seemingly a mark for toxic or unscored doses. Some survivor counts are full or nearly so, which does not show that the dose was tolerated: the source hardly ever lists a survival T/C far under the control, and the zero likely stands for such cases as well. Survivors were counted at the toxicity check, usually on the fifth day, unless a day is given; later deaths do not show. Schedule codes are those of the source, taken here to give the interval after Q, in days (D) or hours (H), and the number of doses after X. For survival time, the PubChem record calls one and a half times the control and up active, and a quarter to a half above the control has no call in these data; cut-offs in other NCI protocols can differ.

Tested on: L1210 leukemia ip in BDF1 mice, survival T/C
Experiment: NCI In Vivo Anticancer Drug Screen. Data for tumor model L1210 Leukemia (intraperitoneal) in B6D2F1 (BDF1) mice
Conditions: T/C endpoint: mean survival time, higher T/C = longer survival
[1] = dose: 400.0 mg/kg/injection, schedule: Q04DX003 (ip), vehicle: saline with Tween-80
[2] = dose: 100.0 mg/kg/injection, schedule: Q01DX009 (ip), vehicle: saline
[3] = dose: 400.0 mg/kg/injection, schedule: Q04DX003 (ip), vehicle: saline
[4] = dose: 100.0 mg/kg/injection, schedule: Q01DX001 (ip), vehicle: saline
[5] = dose: 100.0 mg/kg/injection, schedule: Q01DX009 (ip), vehicle: saline with Tween-80
[6] = dose: 200.0 mg/kg/injection, schedule: Q01DX009 (ip), vehicle: saline with Tween-80
[7] = dose: 400.0 mg/kg/injection, schedule: Q01DX009 (ip), vehicle: saline with Tween-80

With `CC(C)(C)C#CCCl` the survivor count (dose: 300.0 mg/kg/injection, schedule: Q01DX009 (ip), vehicle: saline) was 1 of 6.
For `O=C(NO)c1ccccc1O`, the survivor count (dose: 800.0 mg/kg/injection, schedule: Q01DX009 (ip), vehicle: Klucel (hydroxypropylcellulose) (HPC)) was 5 of 8.
With `COc1cc(Nc2ncnc(N)c2[N+](=O)[O-])cc(OC)c1OC` the survivor count (dose: 100.0 mg/kg/injection, schedule: Q04DX003 (ip), vehicle: saline with Tween-80) was 6 of 6 and the survivor count [1] was 6 of 6.
In the case of `CCCC[S][Hg][I]`, the survivor count (dose: 12.5 mg/kg/injection, schedule: Q01DX009 (ip), vehicle: Klucel (hydroxypropylcellulose) (HPC)) was 6 of 6, the survivor count (dose: 12.5 mg/kg/injection, schedule: Q04DX002 (ip), vehicle: Klucel (hydroxypropylcellulose) (HPC)) was 0 of 3 and the survivor count (dose: 18.0 mg/kg/injection, schedule: Q01DX009 (ip), vehicle: Klucel (hydroxypropylcellulose) (HPC)) was 6 of 6. For the same compound, the survivor count (dose: 25.0 mg/kg/injection, schedule: Q04DX002 (ip), vehicle: Klucel (hydroxypropylcellulose) (HPC)) was 0 of 3, the survivor count (dose: 28.0 mg/kg/injection, schedule: Q01DX009 (ip), vehicle: Klucel (hydroxypropylcellulose) (HPC)) was 3 of 6 and the survivor count (dose: 40.0 mg/kg/injection, schedule: Q01DX009 (ip), vehicle: Klucel (hydroxypropylcellulose) (HPC)) was 0 of 6. The survivor count (dose: 50.0 mg/kg/injection, schedule: Q04DX002 (ip), vehicle: Klucel (hydroxypropylcellulose) (HPC)) was 0 of 3, the survivor count (dose: 100.0 mg/kg/injection, schedule: Q04DX002 (ip), vehicle: Klucel (hydroxypropylcellulose) (HPC)) was 0 of 3 and the survivor count (dose: 200.0 mg/kg/injection, schedule: Q04DX002 (ip), vehicle: Klucel (hydroxypropylcellulose) (HPC)) was 0 of 3. For the same compound, the survivor count (dose: 400.0 mg/kg/injection, schedule: Q04DX002 (ip), vehicle: Klucel (hydroxypropylcellulose) (HPC)) was 0 of 3.
For `COc1c2c(cc3c1C(Cl)N(C)CC3)OCO2` (stereo not given), the survivor count [2] was 2 of 6, the survivor count (dose: 200.0 mg/kg/injection, schedule: Q04DX003 (ip), vehicle: saline) was 3 of 6 and the survivor count [3] was 0 of 6.
`CC1(C)CCC(C)(C)c2c1ccc(O)c2Cc1c(O)ccc2c1C(C)(C)CCC2(C)C` was tested, and the survivor count [4] was 6 of 6 and the survivor count (dose: 400.0 mg/kg/injection, schedule: Q01DX001 (ip), vehicle: saline) was 6 of 6.
For `CCOC(=O)c1ccc(NCC(C)(C)[N+](=O)[O-])cc1`, the survivor count [2] was 6 of 6 and the survivor count (dose: 200.0 mg/kg/injection, schedule: Q01DX009 (ip), vehicle: saline) was 6 of 6.
With `O=C(Cc1c[nH]c2ccccc12)N/N=C\c1c[nH]c2ccccc12` the survivor count [4] was 6 of 6.
In the case of `OC1CC2CCC(C1)N2` (stereo not given), the survivor count (dose: 300.0 mg/kg/injection, schedule: Q01DX001 (ip), vehicle: saline) was 3 of 6.
With `COC(=O)c1ccc(OC)c2nc3c(C=O)c(OC)cc(OC)c3nc12` the survivor count [5] was 3 of 6, the survivor count [6] was 1 of 6 and the survivor count [7] was 0 of 6.
In the case of `O=C1c2cccc3c2C2(O)c4c1cccc4C(=O)c1cccc(c12)C3=O`, the T/C [6] was 134 % of control and the survivor count [7] was 6 of 6.
For `O=C(O)C(O)C(=O)O`, the survivor count [3] was 2 of 6.
`CCN(CC)CC(O)CNc1ccnc2cc(Cl)ccc12` (stereo not given) was tested, and the survivor count [5] was 3 of 6, the survivor count [6] was 0 of 6 and the survivor count [7] was 0 of 6.
For `C1CCC2CC3CCCCC3CC2C1` (stereo not given), the survivor count (dose: 200.0 mg/kg/injection, schedule: Q01DX001 (ip), vehicle: saline) was 1 of 4.
With `CC(C)C(CN)(CCN(C)C)c1cccc2ccccc12` (stereo not given) the survivor count (dose: 200.0 mg/kg/injection, schedule: Q04DX003 (ip), vehicle: saline with Tween-80) was 5 of 6 and the survivor count [1] was 0 of 6.
